This test has as its system Candida albicans. Kind of test: Antifungal activity against Candida albicans by broth microdilution assay. Type of test: functional, organism-based. (In broth dilution the organism is exposed to a series of concentrations in liquid medium.)

Values after ≈ are worked out from the molar mass of the structure shown.

In general, MIC refers to the smallest concentration in the dilution series that meets the test's criterion for growth inhibition. Take `C[C@@H]1[C@H](O)[C@@H](C)/C=C/C=C/C=C/C=C/C=C/C=C/C=C/[C@H](O[C@@H]2O[C@H](C)[C@@H](O)[C@H](N)[C@@H]2O)C[C@@H]2O[C@](O)(C[C@@H](O)C[C@@H](O)[C@H](O)CC[C@@H](O)C[C@@H](O)CC(=O)O[C@H]1C)C[C@H](O)[C@H]2C(=O)O` [AMPHOTERICIN B]: it took 0.63 µg/mL (≈ 0.682 µM) to inhibit growth (MIC).

The values are drawn from ChEMBL document CHEMBL3217667, “Extended side chain analogues of 8-aminoquinolines: Synthesis and evaluation of antiprotozoal, antimicrobial, -hematin inhibition, and cytotoxic activities” (Medchemcomm, 2011).
